No constants are given. Whether binding was seen depends on the method and setting. In cells and extracts the contact can be indirect. A yes stands for co-enrichment or nearness to the bait. Other partners may have been found.

Protein sequences, listed by entry. Tags and fused reporters are not part of them.
UniProt O14965: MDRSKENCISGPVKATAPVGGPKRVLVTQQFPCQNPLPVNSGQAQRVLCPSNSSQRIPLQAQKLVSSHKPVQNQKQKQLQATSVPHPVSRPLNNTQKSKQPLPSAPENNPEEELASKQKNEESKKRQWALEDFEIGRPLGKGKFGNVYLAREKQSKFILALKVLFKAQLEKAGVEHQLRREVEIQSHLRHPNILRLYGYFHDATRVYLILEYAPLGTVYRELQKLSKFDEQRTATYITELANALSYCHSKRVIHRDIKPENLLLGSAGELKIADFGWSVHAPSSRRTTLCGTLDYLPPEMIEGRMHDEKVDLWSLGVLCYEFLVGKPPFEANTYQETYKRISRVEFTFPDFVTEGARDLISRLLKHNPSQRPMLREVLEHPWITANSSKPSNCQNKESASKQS
UniProt Q7Z460: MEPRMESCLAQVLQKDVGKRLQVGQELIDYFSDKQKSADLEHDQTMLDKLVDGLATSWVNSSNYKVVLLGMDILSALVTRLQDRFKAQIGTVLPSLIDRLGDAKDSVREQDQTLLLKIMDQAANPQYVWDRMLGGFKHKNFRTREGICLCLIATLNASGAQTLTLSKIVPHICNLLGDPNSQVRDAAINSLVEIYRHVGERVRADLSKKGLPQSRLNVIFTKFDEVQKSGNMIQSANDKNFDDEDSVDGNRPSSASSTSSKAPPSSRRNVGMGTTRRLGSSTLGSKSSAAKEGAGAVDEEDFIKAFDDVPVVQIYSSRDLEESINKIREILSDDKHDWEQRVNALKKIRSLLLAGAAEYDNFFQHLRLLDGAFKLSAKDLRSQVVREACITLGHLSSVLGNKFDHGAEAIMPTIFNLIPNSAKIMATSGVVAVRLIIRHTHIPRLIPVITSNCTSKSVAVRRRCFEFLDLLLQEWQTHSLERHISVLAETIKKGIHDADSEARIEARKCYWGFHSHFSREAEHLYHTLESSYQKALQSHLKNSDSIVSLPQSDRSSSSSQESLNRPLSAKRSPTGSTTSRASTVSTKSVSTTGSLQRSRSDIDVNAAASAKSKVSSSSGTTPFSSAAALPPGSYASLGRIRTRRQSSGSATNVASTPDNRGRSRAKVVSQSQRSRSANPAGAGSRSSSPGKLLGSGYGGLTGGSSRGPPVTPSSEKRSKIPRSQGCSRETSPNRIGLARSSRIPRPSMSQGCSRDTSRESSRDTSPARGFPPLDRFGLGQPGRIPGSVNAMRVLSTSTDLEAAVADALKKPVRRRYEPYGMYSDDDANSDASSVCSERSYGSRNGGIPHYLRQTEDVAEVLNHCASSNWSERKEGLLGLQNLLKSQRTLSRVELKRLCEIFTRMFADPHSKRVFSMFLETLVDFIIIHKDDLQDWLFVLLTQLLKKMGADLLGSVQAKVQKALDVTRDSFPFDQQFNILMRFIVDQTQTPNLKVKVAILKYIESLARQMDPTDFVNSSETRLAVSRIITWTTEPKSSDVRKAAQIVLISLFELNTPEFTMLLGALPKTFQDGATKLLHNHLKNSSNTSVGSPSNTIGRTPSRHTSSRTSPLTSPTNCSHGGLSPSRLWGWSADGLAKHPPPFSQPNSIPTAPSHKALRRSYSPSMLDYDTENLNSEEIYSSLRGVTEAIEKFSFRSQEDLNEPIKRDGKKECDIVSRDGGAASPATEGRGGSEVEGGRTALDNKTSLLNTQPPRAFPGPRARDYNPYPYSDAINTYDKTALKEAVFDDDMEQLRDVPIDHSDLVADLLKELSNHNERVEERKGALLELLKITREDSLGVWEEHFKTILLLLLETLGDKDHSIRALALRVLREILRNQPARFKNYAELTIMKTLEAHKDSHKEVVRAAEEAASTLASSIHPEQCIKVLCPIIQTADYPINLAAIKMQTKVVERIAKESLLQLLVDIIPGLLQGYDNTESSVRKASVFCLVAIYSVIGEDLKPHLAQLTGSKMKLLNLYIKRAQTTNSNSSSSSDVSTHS

We go through 4 molecules from PMC11890761.

The labels stand for the following.
B1: RHAMM (protein, UniProt O75330 1-724)
chain: MSFPKAPLKRFNDPSGCAPSPGAYDVKTLEVLKGPVSFQKSQRFKQQKESKQNLNVDKDTTLPASARKVKSSESKESQKNDKDLKILEKEIRVLLQERGAQDRRIQDLETELEKMEARLNAALREKTSLSANNATLEKQLIELTRTNELLKSKFSENGNQKNLRILSLELMKLRNKRETKMRGMMAKQEGMEMKLQVTQRSLEESQGKIAQLEGKLVSIEKEKIDEKSETEKLLEYIEEISCASDQVEKYKLDIAQLEENLKEKNDEILSLKQSLEENIVILSKQVEDLNVKCQLLEKEKEDHVNRNREHNENLNAEMQNLKQKFILEQQEREKLQQKELQIDSLLQQEKELSSSLHQKLCSFQEEMVKEKNLFEEELKQTLDELDKLQQKEEQAERLVKQLEEEAKSRAEELKLLEEKLKGKEAELEKSSAAHTQATLLLQEKYDSMVQSLEDVTAQFESYKALTASEIEDLKLENSSLQEKAAKAGKNAEDVQHQILATESSNQEYVRMLLDLQTKSALKETEIKEITVSFLQKITDLQNQLKQQEEDFRKQLEDEEGRKAEKENTTAELTEEINKWRLLYEELYNKTKPFQLQLDAFEVEKQALLNEHGAAQEQLNKIRDSYAKLLGHQNLKQKIKHVVKLKDENSQLKSEVSKLRCQLAKKKQSETKLQEELNKVLGIKHFDPSKAFHHESKENFALKTPLKEGNTNCYRAPMECQESWK
B2: NOL6 (protein, UniProt Q9H6R4 1-1146)
chain: MGPAPAGEQLRGATGEPEVMEPALEGTGKEGKKASSRKRTLAEPPAKGLLQPVKLSRAELYKEPTNEELNRLRETEILFHSSLLRLQVEELLKEVRLSEKKKDRIDAFLREVNQRVVRVPSVPETELTDQAWLPAGVRVPLHQVPYAVKGCFRFLPPAQVTVVGSYLLGTCIRPDINVDVALTMPREILQDKDGLNQRYFRKRALYLAHLAHHLAQDPLFGSVCFSYTNGCHLKPSLLLRPRGKDERLVTVRLHPCPPPDFFRPCRLLPTKNNVRSAWYRGQSPAGDGSPEPPTPRYNTWVLQDTVLESHLQLLSTILSSAQGLKDGVALLKVWLRQRELDKGQGGFTGFLVSMLVVFLVSTRKIHTTMSGYQVLRSVLQFLATTDLTVNGISLCLSSDPSLPALADFHQAFSVVFLDSSGHLNLCADVTASTYHQVQHEARLSMMLLDSRADDGFHLLLMTPKPMIRAFDHVLHLRPLSRLQAACHRLKLWPELQDNGGDYVSAALGPLTTLLEQGLGARLNLLAHSRPPVPEWDISQDPPKHKDSGTLTLGLLLRPEGLTSVLELGPEADQPEAAKFRQFWGSRSELRRFQDGAIREAVVWEAASMSQKRLIPHQVVTHLLALHADIPETCVHYVGGPLDALIQGLKETSSTGEEALVAAVRCYDDLSRLLWGLEGLPLTVSAVQGAHPVLRYTEVFPPTPVRPAFSFYETLRERSSLLPRLDKPCPAYVEPMTVVCHLEGSGQWPQDAEAVQRVRAAFQLRLAELLTQQHGLQCRATATHTDVLKDGFVFRIRVAYQREPQILKEVQSPEGMISLRDTAASLRLERDTRQLPLLTSALHGLQQQHPAFSGVARLAKRWVRAQLLGEGFADESLDLVAAALFLHPEPFTPPSSPQVGFLRFLFLVSTFDWKNNPLFVNLNNELTVEEQVEIRSGFLAARAQLPVMVIVTPQDRKNSVWTQDGPSAQILQQLVVLAAEALPMLEKQLMDPRGPGDIRTVFRPPLDIYDVLIRLSPRHIPRHRQAVDSPAASFCRGLLSQPGPSSLMPVLGYDPPQLYLTQLREAFGDLALFFYDQHGGEVIGVLWKPTSFQPQPFKASSTKGRMVMSRGGELVMVPNVEAILEDFAVLGEGLVQTVEARSERWTV
B3: CLASP2 (protein, UniProt O75122 1-1294)
chain: MAMGDDKSFDDEESVDGNRPSSAASAFKVPAPKTSGNPANSARKPGSAGGPKVGGASKEGGAGAVDEDDFIKAFTDVPSIQIYSSRELEETLNKIREILSDDKHDWDQRANALKKIRSLLVAGAAQYDCFFQHLRLLDGALKLSAKDLRSQVVREACITVAHLSTVLGNKFDHGAEAIVPTLFNLVPNSAKVMATSGCAAIRFIIRHTHVPRLIPLITSNCTSKSVPVRRRSFEFLDLLLQEWQTHSLERHAAVLVETIKKGIHDADAEARVEARKTYMGLRNHFPGEAETLYNSLEPSYQKSLQTYLKSSGSVASLPQSDRSSSSSQESLNRPFSSKWSTANPSTVAGRVSAGSSKASSLPGSLQRSRSDIDVNAAAGAKAHHAAGQSVRSGRLGAGALNAGSYASLEDTSDKLDGTASEDGRVRAKLSAPLAGMGNAKADSRGRSRTKMVSQSQPGSRSGSPGRVLTTTALSTVSSGVQRVLVNSASAQKRSKIPRSQGCSREASPSRLSVARSSRIPRPSVSQGCSREASRESSRDTSPVRSFQPLASRHHSRSTGALYAPEVYGASGPGYGISQSSRLSSSVSAMRVLNTGSDVEEAVADALKKPARRRYESYGMHSDDDANSDASSACSERSYSSRNGSIPTYMRQTEDVAEVLNRCASSNWSERKEGLLGLQNLLKNQRTLSRVELKRLCEIFTRMFADPHGKRVFSMFLETLVDFIQVHKDDLQDWLFVLLTQLLKKMGADLLGSVQAKVQKALDVTRESFPNDLQFNILMRFTVDQTQTPSLKVKVAILKYIETLAKQMDPGDFINSSETRLAVSRVITWTTEPKSSDVRKAAQSVLISLFELNTPEFTMLLGALPKTFQDGATKLLHNHLRNTGNGTQSSMGSPLTRPTPRSPANWSSPLTSPTNTSQNTLSPSAFDYDTENMNSEDIYSSLRGVTEAIQNFSFRSQEDMNEPLKRDSKKDDGDSMCGGPGMSDPRAGGDATDSSQTALDNKASLLHSMPTHSSPRSRDYNPYNYSDSISPFNKSALKEAMFDDDADQFPDDLSLDHSDLVAELLKELSNHNERVEERKIALYELMKLTQEESFSVWDEHFKTILLLLLETLGDKEPTIRALALKVLREILRHQPARFKNYAELTVMKTLEAHKDPHKEVVRSAEEAASVLATSISPEQCIKVLCPIIQTADYPINLAAIKMQTKVIERVSKETLNLLLPEIMPGLIQGYDNSESSVRKACVFCLVAVHAVIGDELKPHLSQLTGSKMKLLNLYIKRAQTGSGGADPTTDVSGQS

This assay addresses Aurora kinase A (human (endogenous in HeLa and A549)) (UniProt O14965). The assay can be described thus: affinity purification with mass spectrometry; AURKA antibody IP from lysate of HeLa cells synchronized in prometaphase (4 mg), protein A/G magnetic beads, rabbit IgG as control; beads split, untreated or RNase cocktail (RNase A, I, III, H, T1) 1 h at 4 °C; washes 150 mM then 300 mM KCl, 0.5% NP-40; LC-MS/MS.
Take CLASP1 (from UniProt Q7Z460 1-1538): the binding entry is listed as “binds”.
In the case of B1, the binding result was “binds”.
In the case of B2, the binding entry is given as “binds”.
In the case of B3, the binding entry is listed as “binds”.
